Data from PubChem BioAssay AID2551 (National Center for Advancing Translational Sciences (NCATS), 2010).
Hit rate of the full screen: of about 310,000 compounds, about 17,000 (5.5%) were called active. The shares of active, inactive and inconclusive entries below differ from those in the screen. Calls follow the shape of the dose curve; as a rule, active = well fitted inhibition curve with a large enough effect; inconclusive = small, poorly fitted or top-dose-only effect, or effect the other way; inactive = no such curve, though single readings can be large or run the other way. A potency beside an inconclusive call is a rough fit, not a confirmed value.

Sequences of proteins named here, by UniProt entry; tags and fusion partners are left off. A change or cut given only in a name is not applied to a line headed by its entry.
UniProt P51450: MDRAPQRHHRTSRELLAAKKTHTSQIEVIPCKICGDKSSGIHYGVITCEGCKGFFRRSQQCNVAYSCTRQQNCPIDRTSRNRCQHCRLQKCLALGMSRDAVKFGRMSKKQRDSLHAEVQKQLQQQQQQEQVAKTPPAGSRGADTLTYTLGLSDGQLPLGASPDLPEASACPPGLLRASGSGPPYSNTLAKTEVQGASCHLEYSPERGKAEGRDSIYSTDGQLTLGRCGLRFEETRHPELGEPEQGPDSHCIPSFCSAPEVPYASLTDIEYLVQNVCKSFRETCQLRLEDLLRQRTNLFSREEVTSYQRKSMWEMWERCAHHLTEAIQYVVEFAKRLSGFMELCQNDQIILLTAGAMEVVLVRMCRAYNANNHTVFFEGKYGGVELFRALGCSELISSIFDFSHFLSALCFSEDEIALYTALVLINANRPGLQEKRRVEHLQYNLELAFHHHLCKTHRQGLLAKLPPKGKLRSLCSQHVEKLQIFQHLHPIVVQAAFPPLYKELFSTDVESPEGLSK

Biological target: Nuclear receptor ROR-gamma (Mus musculus) (UniProt P51450)
Assay: qHTS for inhibitors of ROR gamma transcriptional activity; also: nearly all actives have a fitted effect of over 60% in size
Conditions: Drosophila S2 Gal4-RORgamma UAS-luciferase reporter, 20 h; series mostly up to 53.6 µM
Summary of the method: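 Drosophila S2 cells stably expressing Gal4-DBD/mouse RORγ fusion under metallothionein promoter plus UAS-luciferase; compound 1 h, then 700 uM CuSO4 induction for 20 h at ambient temperature; inhibition read as reduced luminescence.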
Potency is read from the fitted curve at half-maximal effect.

Compound	Potency
CC(NC(=O)CSC1=NCCS1)c1ccccc1 (stereo unspecified)	active: 5.01 µM
CN(C(=O)c1cc([N+](=O)[O-])ccc1N1CCCC1)C1CCCCC1	inactive
Clc1ccc(Nc2c3c(nc4ncnn24)CCC3)cc1	inconclusive: 14.1 µM [inhibitor, single point]
O=C1OCCN1C(=O)[C@H]1[C@H](c2ccc([N+](=O)[O-])cc2)C(c2ccccc2)=NN1c1ccccc1	inactive
COc1ccc(S(=O)(=O)N2CCC(Cc3ccccc3)CC2)cc1C(N)=O	inconclusive: 12.6 µM [inhibitor, single point]
COc1ccc2nc(NC(=O)C3CCCN(S(=O)(=O)c4cccc5nonc45)C3)sc2c1 (stereo unspecified)	inconclusive: 10 µM [activator, partial curve]
COc1ccc(-c2cc(=O)c3c(OC(C)=O)cc(OC(C)=O)cc3o2)cc1	inconclusive: 3.55 µM [activator, single point]
Cn1c(C(=O)NCC2CCCO2)cc2c(=O)[nH]c3ccccc3c21 (stereo unspecified)	inconclusive: 5.62 µM [activator, single point]
COC(=O)N(NC(=O)C(O)(C(C)C)C(C)C)c1ccccc1	inactive
CC1CCCN(C(=S)SCC(=O)c2cc(Br)cc(Br)c2O)C1 (stereo unspecified)	inconclusive: 35.5 µM [inhibitor, partial curve]
CCOC(=O)c1c(NC(=O)CSc2nnc(CNc3ccc(F)cc3)o2)sc(C(C)=O)c1C	inconclusive: 10 µM [inhibitor, partial curve]
O=C(Nc1ccccc1C(=O)O)c1cccc(N2C(=O)c3ccccc3C2=O)c1	inactive
Cc1noc2ncnc(Oc3ccccc3)c12	inactive
CC1CCc2nc(NC(=O)Cc3cccs3)sc2C1 (stereo unspecified)	inconclusive: 35.5 µM [inhibitor, single point]
O=C(Cn1cc(C(=O)c2ccco2)c2ccccc21)Nc1ccccc1	inactive
COc1cccc(N2CC(C(=O)Nc3ccc(C(=O)OC(C)C)cc3)CC2=O)c1 (stereo unspecified)	inconclusive: 11.2 µM [activator, partial curve]
Cc1ccc2[nH]c(=O)c(CN(CC3CCCO3)C(=S)NCc3ccco3)cc2c1 (stereo unspecified)	inconclusive: 22.4 µM [activator, single point]
O=C(NCCc1ccc(C(F)(F)F)cc1)C1CCC(=O)N(CCCc2ccccc2)C1 (stereo unspecified)	inactive
O=C(Nc1cccc(Cl)c1)N1CCSc2cc(Cl)ccc21	inconclusive: 22.4 µM [activator, single point]
CC(C)NC(=S)N1CCC(Cc2ccccc2)CC1	active: 1.12 µM
O=C(NCCN1CCOCC1)c1sc2cc(Cl)ccc2c1Cl	inactive

Single entries from the results shown.
Under Potency, CN(C(=O)c1cc([N+](=O)[O-])ccc1N1CCCC1)C1CCCCC1 has inactive
Under Potency, O=C(NCCN1CCOCC1)c1sc2cc(Cl)ccc2c1Cl has inactive
